At least one structure is not confirmed: it was looked up by name or label, or the drawing left a doubt.
Test system: Hep3B cells
Assay: Clonogenic assay, Hep3B cells
Type: cell-based, human
Conditions: mirin 25 μM (sub-cytotoxic) with gemcitabine
Description: Clonogenic assay estimates single-cell reproductive viability by measuring the ability of a single cell to form a colony of 50 cells or more. Clonogenic assay in this study was performed as described previously (Franken et al., 2006). Briefly, cancer cells from an exponentially growing, sub-confluent culture were trypsinized and harvested. Approximately 200 cells were counted and plated in each well of a 6-well plate. Approximately 12 hours later, the cells were adherent and treatment conditions were introduced as described herein. After varying treatments, media was replaced and cells were allowed 14 days to form colonies. Subsequently, the media was aspirated and cells were washed with PBS once. Colonies were then fixed with glutaraldehyde (6.0% v/v) and stained with crystal violet (0.5% w/v) for 30 minutes on a leveled shaker at 50 RPM. The fixation and staining solution was then aspirated and the 6-well plates were air-dried after gentle rinsing with tap water. The number of colonies in each well was counted using a colony counting grid. […]
Clonogenic assays were performed on Hep3B cells and SNU449 cells after one of two combinations of hyperthermia and gemcitabine compared with hyperthermia or gemcitabine alone. […] Next, clonogenic viability was evaluated at a gemcitabine concentration of 5 ng/ml and varied the duration of hyperthermia (30 minutes to 4 hours). […]

## N=C1NC(=O)/C(=C/c2ccc(O)cc2)S1 [mirin]
  gemcitabine-induced clonogenic cell death with mirin: substantially enhanced gemcitabine-induced clonogenic cell death

— US20170209579A1, “NON-INVASIVE RADIOFREQUENCY FIELD TREATMENT FOR CANCER THERAPY” (Baylor College of Medicine, priority 2014, published 2017)
